From PMC9200640
Results are given in words; binding and its absence hold for the method and conditions named. Some binding calls cover weakened binding; strength is not graded here.

The chains behind the UniProt entries cited, without tags or fusion partners. Residues count along the entry.
UniProt Q9H2K0, residues 32-278: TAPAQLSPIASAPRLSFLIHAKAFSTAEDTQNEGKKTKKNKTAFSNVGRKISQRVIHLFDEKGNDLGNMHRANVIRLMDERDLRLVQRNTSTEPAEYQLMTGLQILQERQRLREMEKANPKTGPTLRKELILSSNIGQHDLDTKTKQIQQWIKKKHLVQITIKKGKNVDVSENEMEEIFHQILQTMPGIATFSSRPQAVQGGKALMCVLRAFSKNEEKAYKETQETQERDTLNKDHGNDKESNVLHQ

Target: RBFA (human mitochondrial ribosome-binding factor A) (human (endogenous in HEK293T)) (UniProt Q8N0V3)
Experiment: cryo-EM structure; pre-SSU-4 (2.9 Å), native SSU assembly intermediate from mitochondria of MRM3-knockout HEK293T cells, sucrose gradient fractions

For “mtIF3 (mitochondrial initiation factor 3) (from UniProt Q9H2K0 32-278)”, the binding was “binds”.
